Results as given in patent publication US20040018558A1.
Results are given in words; binding and its absence hold for the method and conditions named. Some entries that bind do so weakly or less than the wild type.

What follows are binders tested against T1, human thrombin receptor (PAR1) (human) (UniProt P25116) (assay: G11 library panning, CHO expressed PAR1).
T1 sequence (looked up): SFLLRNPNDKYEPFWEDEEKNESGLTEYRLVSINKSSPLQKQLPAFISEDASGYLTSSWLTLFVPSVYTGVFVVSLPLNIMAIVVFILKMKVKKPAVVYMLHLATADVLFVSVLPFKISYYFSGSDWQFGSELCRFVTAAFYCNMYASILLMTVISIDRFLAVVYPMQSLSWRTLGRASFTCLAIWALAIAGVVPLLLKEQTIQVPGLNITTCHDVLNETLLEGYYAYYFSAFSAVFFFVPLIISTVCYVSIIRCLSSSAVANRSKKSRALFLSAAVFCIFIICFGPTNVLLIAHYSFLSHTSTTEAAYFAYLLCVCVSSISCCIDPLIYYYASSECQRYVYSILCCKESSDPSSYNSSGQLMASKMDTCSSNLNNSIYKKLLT

Row | Binder | binding
1 | SGPQLQLNVKEYNLV (peptide, not shown: small tags and cut ends) [Clone R3-44 …] | binds
2 | LQLNRKNYNLV (peptide, not shown: small tags and cut ends) | binds
3 | LQLRVKEYKRG (peptide, not shown: small tags and cut ends) | binds
4 | RLTRLQLRYKCYNLV (peptide, not shown: small tags and cut ends) [Clone R2-21 …] | binds
5 | LQLDLKESNMV (peptide, not shown: small tags and cut ends) | binds
6 | LQIYLKGYNLV (peptide, not shown: small tags and cut ends) | binds
7 | LQLNLKKYNRV (peptide, not shown: small tags and cut ends) | binds
8 | SWVLQFNLNDCNLV (peptide, not shown: small tags and cut ends) [Clone R2-16 …] | binds
9 | FVNCLQRNKKQYNLG (peptide, not shown: small tags and cut ends) [Clone R2-17 …] | binds
10 | SRKLQQSLIEYNLL (peptide, not shown: small tags and cut ends) [Clone R3-37 …] | binds
11 | LQYNLKESFVV (peptide, not shown: small tags and cut ends) | binds
12 | RVQHQLDLLEYNLG (peptide, not shown: small tags and cut ends) [Clone R2-20 …] | binds
13 | LQRDHVEYKLF (peptide, not shown: small tags and cut ends) | binds
14 | VQVKLKEYNLV (peptide, not shown: small tags and cut ends) | binds
15 | LVIKPKEFNLV (peptide, not shown: small tags and cut ends) | binds
16 | EVRRMKLKLKEDNLV (peptide, not shown: small tags and cut ends) [Clone R2-18 …] | binds
17 | IQLNLKNYNIV (peptide, not shown: small tags and cut ends) | binds
18 | MQLNLKEYNLV (peptide, not shown: small tags and cut ends) | binds
19 | QLLNQYVYNLV (peptide, not shown: small tags and cut ends) | binds
20 | WRLSLKVYNLV (peptide, not shown: small tags and cut ends) | binds
21 | PRQLLQLKRGEYILV (peptide, not shown: small tags and cut ends) [Clone C4-5 …] | binds
22 | VRPSLQLNRNEYYLV (peptide, not shown: small tags and cut ends) [Clone C4-19 …] | binds
23 | SRHTLRLNGKELNLV (peptide, not shown: small tags and cut ends) [Clone C5-10 …] | binds
24 | FFWVCSLKLKAYNLV (peptide, not shown: small tags and cut ends) [Clone C5-12 …] | binds
25 | QRDTLQMNHNEYNLV (peptide, not shown: small tags and cut ends) [Clone C4-16 …] | binds
26 | NFRNPQLNLNAYNLV (peptide, not shown: small tags and cut ends) [Clone C7-3 …] | binds
27 | LPQMQRLNVGEYNLV (peptide, not shown: small tags and cut ends) [Clone C7-10 …] | binds
28 | LSTNLHLNLKEYNLV (peptide, not shown: small tags and cut ends) [Clone C7-13 …] | binds
29 | LSRSLQQKLKEYSLV (peptide, not shown: small tags and cut ends) [Clone C7-14 …] | binds

What follows are binders tested against T1, human thrombin receptor (PAR1) (human) (assay: G11 library panning, Sf9 expressed PAR1).

Row | Binder | binding
30 | RWIVLQLNLKVYNLV (peptide, not shown: small tags and cut ends) [Clone S1-18 …] | binds
31 | RSEVLQLKHKENNLM (peptide, not shown: small tags and cut ends) [Clone S2-26 …] | binds
32 | VPSPLQKNLKEYNMV (peptide, not shown: small tags and cut ends) [Clone S3-6 …] | binds
33 | HQMALQVNLEEYHLV (peptide, not shown: small tags and cut ends) [Clone S2-36 …] | binds
34 | LFLNLKEYSLV (peptide, not shown: small tags and cut ends) | binds
35 | LELNLKVYNLV (peptide, not shown: small tags and cut ends) | binds
36 | LPLNPKEYSLV (peptide, not shown: small tags and cut ends) | binds
37 | LPLNLIDFSLM (peptide, not shown: small tags and cut ends) | binds
38 | LPRNLKEYDLG (peptide, not shown: small tags and cut ends) | binds
39 | LRLNDIEALLV (peptide, not shown: small tags and cut ends) | binds
40 | LVLNRIEYNLL (peptide, not shown: small tags and cut ends) | binds
41 | CEPGLHLNMAEVSLV (peptide, not shown: small tags and cut ends) [Clone S2-30 …] | binds
42 | CVEMNLTLKECNLV (peptide, not shown: small tags and cut ends) [Clone S3-15 …] | binds
43 | SIRMKLNVSESNLV (peptide, not shown: small tags and cut ends) [Clone S1-13 …] | binds
44 | MWPSLKRYLKESNLV (peptide, not shown: small tags and cut ends) [Clone S3-10 …] | binds
45 | LKRKLKESNMG (peptide, not shown: small tags and cut ends) | binds
46 | LKRKVKEYNLG (peptide, not shown: small tags and cut ends) | binds
47 | GGHLELNLKVYNLF (peptide, not shown: small tags and cut ends) [Clone S1-23 …] | binds
48 | QMPNLQMYLRGYNLV (peptide, not shown: small tags and cut ends) [Clone S3-8 …] | binds

What follows are binders tested against T1, human thrombin receptor (PAR1) (human) (assay: LacI display panning, Sf9 membranes with PAR1).

Row | Binder | binding
49 | RWIVLQLNLKVYNLV (peptide, not shown: small tags and cut ends) [Clone S1-18 …] | binds
50 | RSEVLQLKHKENNLM (peptide, not shown: small tags and cut ends) [Clone S2-26 …] | binds
51 | VPSPLQKNLKEYNMV (peptide, not shown: small tags and cut ends) [Clone S3-6 …] | binds
52 | HQMALQVNLEEYHLV (peptide, not shown: small tags and cut ends) [Clone S2-36 …] | binds
53 | CEPGLHLNMAEVSLV (peptide, not shown: small tags and cut ends) [Clone S2-30 …] | binds
54 | CVEMNLTLKECNLV (peptide, not shown: small tags and cut ends) [Clone S3-15 …] | binds
55 | SIRMKLNVSESNLV (peptide, not shown: small tags and cut ends) [Clone S1-13 …] | binds
56 | MWPSLKRYLKESNLV (peptide, not shown: small tags and cut ends) [Clone S3-10 …] | binds
57 | GGHLELNLKVYNLF (peptide, not shown: small tags and cut ends) [Clone S1-23 …] | binds
58 | QMPNLQMYLRGYNLV (peptide, not shown: small tags and cut ends) [Clone S3-8 …] | binds

What follows are binders tested against T1, human thrombin receptor (PAR1) (human) (assay: LacI display panning, CHO membranes with PAR1).

Row | Binder | binding
59 | PRQLLQLKRGEYILV (peptide, not shown: small tags and cut ends) [Clone C4-5 …] | binds
60 | VRPSLQLNRNEYYLV (peptide, not shown: small tags and cut ends) [Clone C4-19 …] | binds
61 | SRHTLRLNGKELNLV (peptide, not shown: small tags and cut ends) [Clone C5-10 …] | binds
62 | FFWVCSLKLKAYNLV (peptide, not shown: small tags and cut ends) [Clone C5-12 …] | binds
63 | QRDTLQMNHNEYNLV (peptide, not shown: small tags and cut ends) [Clone C4-16 …] | binds
64 | NFRNPQLNLNAYNLV (peptide, not shown: small tags and cut ends) [Clone C7-3 …] | binds
65 | LPQMQRLNVGEYNLV (peptide, not shown: small tags and cut ends) [Clone C7-10 …] | binds
66 | LSTNLHLNLKEYNLV (peptide, not shown: small tags and cut ends) [Clone C7-13 …] | binds
67 | LSRSLQQKLKEYSLV (peptide, not shown: small tags and cut ends) [Clone C7-14 …] | binds

Each binder was assayed against T1, human thrombin receptor (PAR1) (human) (assay: G11 library panning, recombinant reconstituted PAR1).

Row | Binder | binding
68 | SGPQLQLNVKEYNLV (peptide, not shown: small tags and cut ends) [Clone R3-44 …] | binds
69 | LQLRVKEYKRG (peptide, not shown: small tags and cut ends) | binds
70 | RLTRLQLRYKCYNLV (peptide, not shown: small tags and cut ends) [Clone R2-21 …] | binds
71 | LQIYLKGYNLV (peptide, not shown: small tags and cut ends) | binds
72 | SWVLQFNLNDCNLV (peptide, not shown: small tags and cut ends) [Clone R2-16 …] | binds
73 | FVNCLQRNKKQYNLG (peptide, not shown: small tags and cut ends) [Clone R2-17 …] | binds
74 | LQRNKNQYNLG (peptide, not shown: small tags and cut ends) | binds
75 | SRKLQQSLIEYNLL (peptide, not shown: small tags and cut ends) [Clone R3-37 …] | binds
76 | LRLDFSEKQLV (peptide, not shown: small tags and cut ends) | binds
77 | LYLDLKEYCLF (peptide, not shown: small tags and cut ends) | binds
78 | RVQHQLDLLEYNLG (peptide, not shown: small tags and cut ends) [Clone R2-20 …] | binds
79 | VQVKLKEYNLV (peptide, not shown: small tags and cut ends) | binds
80 | EVRRMKLKLKEDNLV (peptide, not shown: small tags and cut ends) [Clone R2-18 …] | binds
81 | SAKELDQYNLG (peptide, not shown: small tags and cut ends) | binds
82 | MTHSVHVKLKEYNLV (peptide, not shown: small tags and cut ends) [Clone R3-38 …] | binds

Each binder was assayed against T1, human thrombin receptor (PAR1) (human) (assay: LacI display panning, purified PAR1 in lipid vesicles).

Row | Binder | binding
83 | SGPQLQLNVKEYNLV (peptide, not shown: small tags and cut ends) [Clone R3-44 …] | binds
84 | RLTRLQLRYKCYNLV (peptide, not shown: small tags and cut ends) [Clone R2-21 …] | binds
85 | SWVLQFNLNDCNLV (peptide, not shown: small tags and cut ends) [Clone R2-16 …] | binds
86 | FVNCLQRNKKQYNLG (peptide, not shown: small tags and cut ends) [Clone R2-17 …] | binds
87 | SRKLQQSLIEYNLL (peptide, not shown: small tags and cut ends) [Clone R3-37 …] | binds
88 | RVQHQLDLLEYNLG (peptide, not shown: small tags and cut ends) [Clone R2-20 …] | binds
89 | EVRRMKLKLKEDNLV (peptide, not shown: small tags and cut ends) [Clone R2-18 …] | binds
90 | MTHSVHVKLKEYNLV (peptide, not shown: small tags and cut ends) [Clone R3-38 …] | binds
91 | MLNLRIYLKGYNLV (peptide, not shown: small tags and cut ends) [Clone R3-46 …] | binds

What follows are binders tested against T1, human thrombin receptor (PAR1) (human) (assay: LacI display panning of the G12 library, CHO membranes with PAR1).

Row | Binder | binding
92 | LQETMKDQSLQ (peptide, not shown: small tags and cut ends) | binds
93 | PQVNLKSIMRQ (peptide, not shown: small tags and cut ends) | binds
94 | WQHKLSEVMLQ (peptide, not shown: small tags and cut ends) | binds
